This is an account of results in paper doi:10.1101/2024.12.06.627168.

By UniProt entry, the sequences of proteins in these tests, tags left out.
UniProt P01106: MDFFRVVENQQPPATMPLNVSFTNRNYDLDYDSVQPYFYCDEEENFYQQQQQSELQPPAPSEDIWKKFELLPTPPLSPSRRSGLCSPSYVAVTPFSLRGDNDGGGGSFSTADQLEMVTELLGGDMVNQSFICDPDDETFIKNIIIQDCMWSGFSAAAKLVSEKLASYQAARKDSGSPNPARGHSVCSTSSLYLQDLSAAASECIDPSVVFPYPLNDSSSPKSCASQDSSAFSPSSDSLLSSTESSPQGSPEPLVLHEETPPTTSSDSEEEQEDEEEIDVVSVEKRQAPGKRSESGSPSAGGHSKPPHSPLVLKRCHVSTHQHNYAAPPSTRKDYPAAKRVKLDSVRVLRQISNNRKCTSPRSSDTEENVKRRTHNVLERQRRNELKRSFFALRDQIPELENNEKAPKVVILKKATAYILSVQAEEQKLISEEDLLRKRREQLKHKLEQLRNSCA

Results are given in words; binding and its absence hold for the method and conditions named. In cells and extracts the contact can be indirect. Some binding calls cover weakened binding; strength is not graded here.

First the molecules themselves.
B1: RBM15 (protein, UniProt Q96T37 1-977)
chain: MRTAGRDPVPRRSPRWRRAVPLCETSAGRRVTQLRGDDLRRPATMKGKERSPVKAKRSRGGEDSTSRGERSKKLGGSGGSNGSSSGKTDSGGGSRRSLHLDKSSSRGGSREYDTGGGSSSSRLHSYSSPSTKNSSGGGESRSSSRGGGGESRSSGAASSAPGGGDGAEYKTLKISELGSQLSDEAVEDGLFHEFKRFGDVSVKISHLSGSGSGDERVAFVNFRRPEDARAAKHARGRLVLYDRPLKIEAVYVSRRRSRSPLDKDTYPPSASVVGASVGGHRHPPGGGGGQRSLSPGGAALGYRDYRLQQLALGRLPPPPPPPLPRDLERERDYPFYERVRPAYSLEPRVGAGAGAAPFREVDEISPEDDQRANRTLFLGNLDITVTESDLRRAFDRFGVITEVDIKRPSRGQTSTYGFLKFENLDMSHRAKLAMSGKIIIRNPIKIGYGKATPTTRLWVGGLGPWVPLAALAREFDRFGTIRTIDYRKGDSWAYIQYESLDAAHAAWTHMRGFPLGGPDRRLRVDFADTEHRYQQQYLQPLPLTHYELVTDAFGHRAPDPLRGARDRTPPLLYRDRDRDLYPDSDWVPPPPPVRERSTRTAATSVPAYEPLDSLDRRRDGWSLDRDRGDRDLPSSRDQPRKRRLPEESGGRHLDRSPESDRPRKRHCAPSPDRSPELSSSRDRYNSDNDRSSRLLLERPSPIRDRRGSLEKSQGDKRDRKNSASAERDRKHRTTAPTEGKSPLKKEDRSDGSAPSTSTASSKLKSPSQKQDGGTAPVASASPKLCLAWQGMLLLKNSNFPSNMHLLQGDLQVASSLLVEGSTGGKVAQLKITQRLRLDQPKLDEVTRRIKVAGPNGYAILLAVPGSSDSRSSSSSAASDTATSTQRPLRNLVSYLKQKQAAGVISLPVGGNKDKENTGVLHAFPPCEFSQQFLDSPAKALAKSEEDYLVMIIVRGFGFQIGVRYENKKRENLALTLL
B2: EXOSC10 (protein, UniProt Q01780 1-885)
chain: MAPPSTREPRVLSATSATKSDGEMVLPGFPDADSFVKFALGSVVAVTKASGGLPQFGDEYDFYRSFPGFQAFCETQGDRLLQCMSRVMQYHGCRSNIKDRSKVTELEDKFDLLVDANDVILERVGILLDEASGVNKNQQPVLPAGLQVPKTVVSSWNRKAAEYGKKAKSETFRLLHAKNIIRPQLKFREKIDNSNTPFLPKIFIKPNAQKPLPQALSKERRERPQDRPEDLDVPPALADFIHQQRTQQVEQDMFAHPYQYELNHFTPADAVLQKPQPQLYRPIEETPCHFISSLDELVELNEKLLNCQEFAVDLEHHSYRSFLGLTCLMQISTRTEDFIIDTLELRSDMYILNESLTDPAIVKVFHGADSDIEWLQKDFGLYVVNMFDTHQAARLLNLGRHSLDHLLKLYCNVDSNKQYQLADWRIRPLPEEMLSYARDDTHYLLYIYDKMRLEMWERGNGQPVQLQVVWQRSRDICLKKFIKPIFTDESYLELYRKQKKHLNTQQLTAFQLLFAWRDKTARREDESYGYVLPNHMMLKIAEELPKEPQGIIACCNPVPPLVRQQINEMHLLIQQAREMPLLKSEVAAGVKKSGPLPSAERLENVLFGPHDCSHAPPDGYPIIPTSGSVPVQKQASLFPDEKEDNLLGTTCLIATAVITLFNEPSAEDSKKGPLTVAQKKAQNIMESFENPFRMFLPSLGHRAPVSQAAKFDPSTKIYEISNRWKLAQVQVQKDSKEAVKKKAAEQTAAREQAKEACKAAAEQAISVRQQVVLENAAKKRERATSDPRTTEQKQEKKRLKISKKPKDPEPPEKEFTPYDYSQSDFKAFAGNSKSKVSSQFDPNKQTPSGKKCIAAKKIKQSVGNKSMSFPTGKSDRGFRYNWPQR
B3: STRBP (protein, UniProt Q96SI9 1-672)
chain: MRSIRSFANDDRHVMVKHSTIYPSPEELEAVQNMVSTVECALKHVSDWLDETNKGTKTEGETEVKKDEAGENYSKDQGGRTLCGVMRIGLVAKGLLIKDDMDLELVLMCKDKPTETLLNTVKDNLPIQIQKLTEEKYQVEQCVNEASIIIRNTKEPTLTLKVILTSPLIRDELEKKDGENVSMKDPPDLLDRQKCLNALASLRHAKWFQARANGLKSCVIVLRILRDLCNRVPTWAPLKGWPLELICEKSIGTCNRPLGAGEALRRVMECLASGILLPGGPGLHDPCERDPTDALSYMTIQQKEDITHSAQHALRLSAFGQIYKVLEMDPLPSSKPFQKYSWSVTDKEGAGSSALKRPFEDGLGDDKDPNKKMKRNLRKILDSKAIDLMNALMRLNQIRPGLQYKLLSQSGPVHAPVFTMSVDVDGTTYEASGPSKKTAKLHVAVKVLQAMGYPTGFDADIECMSSDEKSDNESKNETVSSNSSNNTGNSTTETSSTLEVRTQGPILTASGKNPVMELNEKRRGLKYELISETGGSHDKRFVMEVEVDGQKFRGAGPNKKVAKASAALAALEKLFSGPNAANNKKKKIIPQAKGVVNTAVSAAVQAVRGRGRGTLTRGAFVGATAAPGYIAPGYGTPYGYSTAAPAYGLPKRMVLLPVMKFPTYPVPHYSFF
B4: ZCCHC8 (protein, UniProt Q6NZY4 1-707)
chain: MAAEVYFGDLELFEPFDHPEESIPKPVHTRFKDDDGDEEDENGVGDAELRERLRQCEETIEQLRAENQELKRKLNILTRPSGILVNDTKLDGPILQILFMNNAISKQYHQEIEEFVSNLVKRFEEQQKNDVEKTSFNLLPQPSSIVLEEDHKVEESCAIKNNKEAFSVVGSVLYFTNFCLDKLGQPLLNENPQLSEGWEIPKYHQVFSHIVSLEGQEIQVKAKRPKPHCFNCGSEEHQMKDCPMPRNAARISEKRKEYMDACGEANNQNFQQRYHAEEVEERFGRFKPGVISEELQDALGVTDKSLPPFIYRMRQLGYPPGWLKEAELENSGLALYDGKDGTDGETEVGEIQQNKSVTYDLSKLVNYPGFNISTPRGIPDEWRIFGSIPMQACQQKDVFANYLTSNFQAPGVKSGNKRSSSHSSPGSPKKQKNESNSAGSPADMELDSDMEVPHGSQSSESFQFQPPLPPDTPPLPRGTPPPVFTPPLPKGTPPLTPSDSPQTRTASGAVDEDALTLEELEEQQRRIWAALEQAESVNSDSDVPVDTPLTGNSVASSPCPNELDLPVPEGKTSEKQTLDEPEVPEIFTKKSEAGHASSPDSEVTSLCQKEKAELAPVNTEGALLDNGSVVPNCDISNGGSQKLFPADTSPSTATKIHSPIPDMSKFATGITPFEFENMAESTGMYLRIRSLLKNSPRNQQKNKKASE

The target of this experiment is MYC (endogenous, in EtOH-treated control U2OS^MYC-Tet-On cells) (human (endogenous in U2OS)) (UniProt P01106). In words: co-IP.
As to B1, the binding entry is “binds”.

As for B2, the binding result is recorded as “binds”.

B3: the binding result was “binds”.

As for B4, the binding result is given as “binds”.
